Measurements: patent US20250339533A1
Results are given in words; binding and its absence hold for the method and conditions named. Some binding calls cover weakened binding; strength is not graded here. Sequences can lack the tags named with a protein.

Tests used:
[1] = target: Leader-VHH(aALFA)-G4S-CD8h-BBz-CAR (Human); test: flow cytometry, Jurkat T cells expressing the modular CAR armed with soluble adaptor, stained with adaptor-specific antibody
[2] = target: Leader-VHH(aALFA)-G4S-CD8h-BBz-CAR (Human); test: flow cytometry, Jurkat cells expressing the modular CAR armed with 1 or 10 nM soluble adaptor, detected with anti-idiotype antibody
[3] = target: Leader-VHH(aALFA)-G4S-CD8h-BBz-CAR (Human); test: flow cytometry, primary human T cells expressing the modular CAR armed with 100 nM soluble adaptor, stained with adaptor-specific antibody

Measured: binding

B1: Leader2-ALFA-VH/VL(aCLDN6)-His (scFv)
scFv: PSRLEEELRRRLTEPGGGGSGGGGSEVQLQQSGPELVKPGASMKISCKASGYSFTGYTMNWVKQSHGKNLEWIGLINPYNGGTIYNQKFKGKATLTVDKSSSTAYMELLSLTSEDSAVYYCARDYGFVLDYWGQGTTLTVSSGGGGSGGGGSGGGGSDIVLTQSPSIMSVSPGEKVTITCSASSSVSYMHWFQQKPGTSPKLSIYSTSNLASGVPARFSGRGSGTSYSLTISRVAAEDAATYYCQQRSNYPPWTFGGGTKLEIKRSDPAGGSHHHHHH
binds: all assays above
